In patent US9580404B2, “Substituted azines as pesticides” (Novartis Tiergesundheit AG, priority 2012, dated 2017):
Some entries share one result that the patent states for a list of compounds.

What was measured:
A. viteae = A. viteae in Gerbil; assay type: in vivo; conditions: gerbils, day 5 to day 9 after infection, read 84 days after infection
[1] = system: Dirofilaria immitis microfilariae; test: Dirofilaria immitis Microfilaria Assay; assay type: cell-based; conditions: at 30 ppm; 48 hours at 25° C. and 60% RH

| Structure (SMILES) | Efficacy as % reduction in worm numbers in comparison with the placebo treated group (Abbot's formula) (A. viteae; 10 mg/kg p.o.) | Efficacy in percent reduced motility as compared to the control and standards [1] | Efficacy as % reduction in worm numbers in comparison with the placebo treated group (Abbot's formula) (A. viteae; 32 mg/kg p.o.) |
| --- | --- | --- | --- |
| O=[N+]([O-])c1ccc(NC2CCC(Oc3cc(N4CC(Nc5ccc(C(F)(F)F)cc5)C4)ncn3)CC2)cc1C(F)(F)F (stereo not shown) [Compound 90] | above 90% | above 50% |  |
| FC(F)(F)c1ccc(N2CCN(c3cc(OC4CCN(c5ccc(C(F)(F)F)c(C(F)(F)F)c5)CC4)ncn3)CC2)cc1 [Compound 57] |  | above 50% | above 90% |
| O=[N+]([O-])c1ccc(NC2CCC(Oc3cc(N4CCC(Nc5ccc(C(F)(F)F)cc5)CC4)ncn3)CC2)cc1C(F)(F)F (stereo not shown) [Compound 6] |  | above 50% | above 90% |
| O=[N+]([O-])c1ccc(N[C@H]2CC[C@H](Oc3cc(N4CC5(CCN(c6ccc(C(F)(F)F)cc6)C5)C4)ncn3)CC2)cc1C(F)(F)F [Compound 18] | above 90% | above 50% |  |
| O=[N+]([O-])c1cc(N2CCC(Oc3cc(N4CCC(Nc5ccc(C(F)(F)F)cc5)CC4)ncn3)CC2)ccc1C(F)(F)F [Compound 80] |  | above 50% | above 90% |
| N#Cc1ccc(N2CCC(Oc3cc(N4CCN(c5ccc(C(F)(F)F)cc5)CC4)ncn3)C2)cc1C(F)(F)F (stereo not shown) [Compound 65] |  | above 50% | above 90% |
| FC(F)(F)c1ccc(NC2CCN(c3cc(OC4CCN(c5ccc(C(F)(F)F)c(C(F)(F)F)c5)CC4)ncn3)CC2)cc1 [Compound 86] |  | above 50% |  |
| O=[N+]([O-])c1ccc(N[C@H]2CC[C@H](Oc3cc(NCCNc4ccc(C(F)(F)F)cc4)ncn3)CC2)cc1C(F)(F)F [Compound 20] |  | above 50% |  |
| N#Cc1ccc(N2CCC(Oc3cc(N4CCN(c5ccc(C(F)(F)F)cc5)CC4)ncn3)CC2)cc1Cl [Compound 87] |  | above 50% |  |
| CS(=O)(=O)c1cc(N[C@H]2CC[C@H](Oc3cc(N4CCN(c5ccc(C(F)(F)F)cc5)CC4)ncn3)CC2)ccc1[N+](=O)[O-] [Compound 24] |  | above 50% |  |
| O=[N+]([O-])c1ccc(N2CCC(Oc3cc(N4CCC(Nc5ccc(C(F)(F)F)cc5)CC4)ncn3)C2)cc1C(F)(F)F (stereo not shown) [Compound 26] |  | above 50% |  |
| Fc1cc(NC2CCC(Oc3cc(N4CCN(c5ccc(C(F)(F)F)cc5)CC4)ncn3)CC2)ccc1C(F)(F)F (stereo not shown) [Compound 14] |  | above 50% |  |
| O=[N+]([O-])c1ccc(NC2CCN(c3cc(N4CCN(c5ccc(C(F)(F)F)cc5)CC4)ncn3)CC2)cc1C(F)(F)F [Compound 3] |  | above 50% |  |
